From patent US5326751A (Arizona Board of Regents on behalf of the University of …, priority 1992, dated 1994)
Values joined by “and” are separate entries in the source; they are usually repeats but may differ in a detail not shown here. Identical values can stand only once. Some peptides are written in HELM: one residue between dots, names in brackets for other building blocks, links after the first $.

Assay: general procedure: Boc solid-phase peptide synthesis; chloromethylated polystyrene (0.6-0.8 mmoles Cl/g resin) cross-linked with 1% divinylbenzene (Peptides International); B
Conditions: oxidative folding step; run 1

**Q.** Which “final purity (method not given)” value does the source give for “PEPTIDE1{Y.[D-Pen].A.F.[D-Pen]}$PEPTIDE1,PEPTIDE1,2:R3-5:R3$$$V2.0” here?
**A.** Its value is >99% and >85%.
